Measured values as given in publication PMC6874683, “Pyrrothiogatain acts as an inhibitor of GATA family proteins and inhibits Th2 cell differentiation in vitro” (Scientific Reports, 2019).
No constants are given. Whether binding was seen depends on the method and setting. For some assays here: In cells and extracts the contact can be indirect. Some binding calls cover weakened binding; strength is not graded here.

The chains behind the UniProt entries cited, without tags or fusion partners.
UniProt P23771: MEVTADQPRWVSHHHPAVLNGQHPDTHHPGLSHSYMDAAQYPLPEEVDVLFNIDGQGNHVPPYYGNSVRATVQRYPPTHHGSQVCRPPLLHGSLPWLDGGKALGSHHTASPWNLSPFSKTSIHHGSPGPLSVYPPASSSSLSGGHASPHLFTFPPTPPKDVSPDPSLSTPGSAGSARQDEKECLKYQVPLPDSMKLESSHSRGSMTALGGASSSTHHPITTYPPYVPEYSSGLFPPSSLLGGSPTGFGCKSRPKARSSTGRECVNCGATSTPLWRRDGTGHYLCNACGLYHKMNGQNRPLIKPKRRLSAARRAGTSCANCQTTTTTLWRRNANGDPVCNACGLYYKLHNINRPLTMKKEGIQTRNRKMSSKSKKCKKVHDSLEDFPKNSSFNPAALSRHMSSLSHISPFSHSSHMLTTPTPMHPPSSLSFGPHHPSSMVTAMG
UniProt Q06945: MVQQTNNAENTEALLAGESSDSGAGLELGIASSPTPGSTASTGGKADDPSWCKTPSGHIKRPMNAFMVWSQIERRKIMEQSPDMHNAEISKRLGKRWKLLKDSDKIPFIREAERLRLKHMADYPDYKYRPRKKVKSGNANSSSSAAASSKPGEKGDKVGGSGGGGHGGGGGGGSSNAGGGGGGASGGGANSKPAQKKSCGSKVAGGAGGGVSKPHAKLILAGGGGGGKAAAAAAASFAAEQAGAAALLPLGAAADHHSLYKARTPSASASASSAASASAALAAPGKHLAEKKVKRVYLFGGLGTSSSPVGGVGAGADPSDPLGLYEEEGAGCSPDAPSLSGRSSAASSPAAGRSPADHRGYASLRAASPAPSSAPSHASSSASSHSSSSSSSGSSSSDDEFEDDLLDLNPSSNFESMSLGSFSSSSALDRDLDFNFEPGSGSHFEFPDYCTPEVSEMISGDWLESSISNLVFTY

Columns and labels:
[1] = target: FLAG-tagged recombinant full-length GATA3 (UniProt P23771); test: co-IP; recombinant FLAG-GATA3 and AGIA-SOX4 (wheat cell-free) mixed with anti-FLAG M2 affinity agarose gel, 4 °C, 2 h, washed three times; immunoblot with anti-FLAG M2 and anti-AGIA-HRP; with pyrrothiogatain 0 to 100 µM (dose-dependent decrease)
[2] = target: FLAG-tagged recombinant full-length GATA3 (UniProt P23771); test: AlphaScreen or HTRF; biotin-SOX4 and FLAG-tagged protein, both synthesized by the wheat cell-free system; luminescence signal; also with pyrrothiogatain 0 to 100 µM (dose-dependent decrease)

| binding [1] | binding [2] | Substance |
| --- | --- | --- |
| binds | – | AGIA-SOX4 (from UniProt Q06945 1-474) |
| – | binds | N-terminal biotinylated full-length SOX4 (from UniProt Q06945 1-474) |
